Test results from patent US20210369812A1, “OSTEOINDUCTIVE PEPTIDES, COMPOSITIONS, IMPLANTS, AND METHODS OF USE” (The Board of Regents of the University of Oklahoma, priority 2018, published 2021).
These are yes or no findings as the source states them, for the method shown. Some results given as binding are weak or reduced against the parent protein; the word gives no strength. For part of these data: Tags and fused reporters may be left off the sequences shown.

By UniProt entry, the sequences of proteins in these tests, tags left out. Residues count along the entry.
UniProt P36894, residues 24-152: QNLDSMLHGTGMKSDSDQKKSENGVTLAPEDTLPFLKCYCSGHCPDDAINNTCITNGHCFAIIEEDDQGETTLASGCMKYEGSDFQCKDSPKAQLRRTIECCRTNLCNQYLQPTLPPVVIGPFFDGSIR

Legend:
[1] = biological target: T1, BMPR2-Fc (G&P Biosciences) (UniProt Q13873); test: summary of the examples (biopanning, phage ELISA)
T1 sequence (looked up): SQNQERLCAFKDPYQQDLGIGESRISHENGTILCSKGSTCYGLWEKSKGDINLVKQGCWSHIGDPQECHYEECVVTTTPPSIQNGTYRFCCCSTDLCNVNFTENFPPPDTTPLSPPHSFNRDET

[2] = biological target: BMPR1A-Fc (G&P Biosciences) (UniProt P36894); test: summary of the examples (biopanning, phage ELISA)
[3] = biological target: T1, BMPR2-Fc (G&P Biosciences); test: phage ELISA on coated receptor, anti-phage antibody, A450
[4] = biological target: T1, BMPR2-Fc (G&P Biosciences); test: phage display biopanning on immobilized BMPR2-Fc, frequency among sequenced plaques
[5] = biological target: T1, BMPR2-Fc (G&P Biosciences); test: summary of the examples (biopanning)
[6] = biological target: BMPR1A-Fc (G&P Biosciences) (UniProt P36894); test: summary of the examples (biopanning)
[7] = biological target: BMPR1A-Fc (G&P Biosciences) (UniProt P36894); test: phage ELISA on coated receptor, anti-phage antibody, A450
[8] = biological target: BMPR1A-Fc (G&P Biosciences) (UniProt P36894); test: phage display biopanning on immobilized BMPR1A-Fc, frequency among sequenced plaques
[9] = biological target: BMPR1A-Fc (G&P Biosciences) (UniProt P36894); test: phage ELISA on coated receptor, anti-phage antibody, A450; also found by biopanning on BMPR1A alone
[10] = biological target: T1, BMPR2-Fc (G&P Biosciences); test: phage ELISA on coated receptor, anti-phage antibody, A450; also found by biopanning on BMPR2 alone

Binder	binding [1]	binding [2]	binding [5]	binding [6]	also measured
DYHDPSLPTLRK (peptide, not shown: large carriers) [… (SEQ ID NO:8) displayed on the p3 coat protein of M13 phage]	binds	binds			
RDYHPRDHTATW (peptide, not shown: large carriers) [… (SEQ ID NO:4) displayed on the p3 coat protein of M13 phage]	binds	binds			binding [3]: binds; binding [4]: binds
NAKYPTMRPGPL (peptide, not shown: large carriers) [… (SEQ ID NO:9) displayed on the p3 coat protein of M13 phage]	binds	binds			
TSKYLTMRPGPK (peptide, not shown: large carriers) [… (SEQ ID NO:10) displayed on the p3 coat protein of M13 phage]			binds	binds	
TAKYLPMRPGPL (peptide, not shown: large carriers) [… (SEQ ID NO:1) displayed on the p3 coat protein of M13 phage]	binds	binds			binding [7]: binds; binding [8]: binds
VHVPLHRGAVSA (peptide, not shown: large carriers) [… (SEQ ID NO:2) displayed on the p3 coat protein of M13 phage]	binds	binds			binding [7]: binds
TAKSLPMRPGPL (peptide, not shown: large carriers) [… (SEQ ID NO:6) displayed on the p3 coat protein of M13 phage]			binds	binds	
SGTQDSMVGWNK (peptide, not shown: large carriers) [… (SEQ ID NO:3) displayed on the p3 coat protein of M13 phage]	binds	binds			binding [9]: binds; binding [10]: binds
NAKYPTMRPGPK (peptide, not shown: large carriers) [… (SEQ ID NO:7) displayed on the p3 coat protein of M13 phage]			binds	binds	
GNNPLHVHHDKR (peptide, not shown: large carriers) [… (SEQ ID NO:5) displayed on the p3 coat protein of M13 phage]	binds	binds			
